From US20040244069A1
These are yes or no findings as the source states them, for the method shown. Some entries that bind do so weakly or less than the wild type.

Tests used:
[1] = target: T1, ligand binding domain of LRP5 (human) (UniProt O75197); experiment: yeast two hybrid
T1 sequence: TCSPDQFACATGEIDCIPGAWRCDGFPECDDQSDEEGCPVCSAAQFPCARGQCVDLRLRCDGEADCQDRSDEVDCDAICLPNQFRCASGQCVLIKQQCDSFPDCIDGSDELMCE

[2] = target: T1, ligand binding domain of LRP5 (human); experiment: yeast two hybrid screen with the LRP5 ligand binding domain

- binding [1]: binds
- binding [2]: binds
B1: dickkopf-1 (Dkk-1) (ligand, UniProt O94907 32-266, looked up)
chain: TLNSVLNSNAIKNLPPPLGGAAGHPGSAVSAAPGILYPGGNKYQTIDNYQPYPCAEDEECGTDEYCASPTRGGDAGVQICLACRKRRKRCMRHAMCCPGNYCKNGICVSSDQNHFRGEIEETITESFGNDHSTLDGYSRRTTLSSKMYHTKGQEGSVCLRSSDCASGLCCARHFWSKICKPVLKEGQVCTKHRRKGSHGLEIFQRCYCGEGLSCRIQKDHHQASNSSRLHTCQRH
